Data: patent publication US5217952A, “Peptides WS-9326a and WS-9326b, derivatives thereof and uses thereof” (Fujisawa Pharmaceutical Co., Ltd., priority 1988, dated 1993)
For at least one compound, name, drawing or mass did not settle the structure. Numbered stars: 1 amine (or outer) side, 2 acyl side, 3 side chain; on linkers, the order of the positions; unused ones are H or OH. Bridge positions count the residues as written; N and C are the ends. Square brackets hold non-standard residues; d marks the D form. Peptide text beside a SMILES is read from it. * marks the point of attachment. Cinnamoyl(2-(1Z-pentenyl)) = CCC/C=C\c1ccccc1/C=C/C(=O)*; X3 = CC(=O)Oc1ccc(/C=C(\C(=O)[*:2])N(C)[*:1])cc1; X1 = CN(/C(=C/c1ccc(O)cc1)C(=O)[*:2])[*:1]; aThr = C[C@H](O)[C@H](N)C(=O)O

Sequences of proteins named here, by UniProt entry; tags and fusion partners are left off.
UniProt P14600, whole entry: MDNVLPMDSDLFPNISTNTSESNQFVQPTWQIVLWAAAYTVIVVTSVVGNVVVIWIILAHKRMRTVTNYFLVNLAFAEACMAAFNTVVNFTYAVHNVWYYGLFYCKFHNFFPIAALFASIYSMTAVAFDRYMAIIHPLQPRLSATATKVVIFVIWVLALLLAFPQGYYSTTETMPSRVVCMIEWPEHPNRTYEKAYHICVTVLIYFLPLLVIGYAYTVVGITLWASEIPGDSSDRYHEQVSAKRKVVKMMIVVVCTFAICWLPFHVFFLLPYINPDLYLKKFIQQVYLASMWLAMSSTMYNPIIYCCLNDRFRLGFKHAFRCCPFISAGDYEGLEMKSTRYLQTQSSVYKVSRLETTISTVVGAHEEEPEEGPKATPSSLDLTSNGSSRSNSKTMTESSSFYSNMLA
UniProt P30547, whole entry: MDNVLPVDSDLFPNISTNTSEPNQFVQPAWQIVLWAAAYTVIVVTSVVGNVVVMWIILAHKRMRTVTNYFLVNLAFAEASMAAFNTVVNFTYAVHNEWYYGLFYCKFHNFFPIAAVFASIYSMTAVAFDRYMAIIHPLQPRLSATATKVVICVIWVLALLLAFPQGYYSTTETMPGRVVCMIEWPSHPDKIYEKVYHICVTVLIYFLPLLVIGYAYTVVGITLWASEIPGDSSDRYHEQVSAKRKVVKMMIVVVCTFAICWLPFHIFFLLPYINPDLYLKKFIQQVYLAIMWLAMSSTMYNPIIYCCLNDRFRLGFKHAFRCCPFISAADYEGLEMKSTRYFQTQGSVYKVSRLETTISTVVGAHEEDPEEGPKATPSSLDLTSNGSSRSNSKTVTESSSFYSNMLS

Key:
[1] = biological target: T1, specific [^3 H] substance P binding to rat brain membranes (Rattus norvegicus, UniProt P14600); assay: ^3H-Substance P binding to rat brain membranes (radioligand binding assay); settings: 3H-Substance P 1 nM, 4° C., 30 minutes, read-out: IC50 (M) brain, displacement of specific [3H] substance P binding
T1 construct: Whole brains (4 g) were minced into small pieces, and homogenized; from tissue; host or cells: rat whole brain homogenate

[2] = biological target: T2, specific [^3 H] substance P binding to guinea pig lung membranes (Cavia porcellus, UniProt P30547); assay: ^3H-Substance P binding to guinea pig lung membranes (radioligand binding assay); settings: 3H-Substance P 1 nM, 4° C., 30 minutes, read-out: IC50 (M) lung, displacement of specific [3H] substance P binding
T2 construct: The trachea and lungs were removed, and stored at -80° C. until use; from tissue; host or cells: guinea pig trachea and lung crude membrane fraction

Row | Structure (SMILES) | IC50 [1] [M] | IC50 [2] [M]
1 | CCC/C=C\c1ccccc1/C=C/C(=O)N[C@@H]1C(=O)N(C)/C(=C/c2ccc(OC(C)=O)cc2)C(=O)N[C@@H](CC(C)C)C(=O)N[C@H](Cc2ccccc2)C(=O)N[C@@H]([C@H](C)OC(C)=O)C(=O)N[C@@H](CC(N)=O)C(=O)N[C@@H](COC(C)=O)C(=O)O[C@@H]1C [Triacetyl-WS-9326A, triacetyl-WS-9326A] ({Cinnamoyl(2-(1Z-pentenyl))}-T[X3]L[dF][aThr](Ac)NS(Ac); ester 1-C; N-terminus assumed) | 9.4e-05 | 7.7e-05
2 | CCC/C=C\c1ccccc1/C=C/C(=O)N[C@@H]1C(=O)N(C)/C(=C/c2ccc(O)cc2)C(=O)N[C@@H](CC(C)C)C(=O)N[C@H](Cc2ccccc2)C(=O)N[C@@H]([C@H](C)O)C(=O)N[C@@H](CC(N)=O)C(=O)N[C@@H](CO)C(=O)O[C@@H]1C [WS-9326A] ({Cinnamoyl(2-(1Z-pentenyl))}-T[X1]L[dF][aThr]NS; ester 1-C; N-terminus assumed) | 2.5e-05 | 3.8e-06
